These are yes or no findings as the source states them, for the method shown. Some binding calls cover weakened binding; strength is not graded here.
Key:
[1] = biological target: T1, GRAIN YIELD, PLANT HEIGHT AND HEADING DATE 8 (Ghd8) (rice (Oryza sativa)) (UniProt Q0J7P4); test: two-hybrid; GAL4 AD (pGADT7) and BD (pGBKT7) fusions in yeast (AH109, Y187), diploids after mating; growth on YSD lacking Leu, Trp and His with increasing 3AT; 6 days at 30°C
T1 sequence: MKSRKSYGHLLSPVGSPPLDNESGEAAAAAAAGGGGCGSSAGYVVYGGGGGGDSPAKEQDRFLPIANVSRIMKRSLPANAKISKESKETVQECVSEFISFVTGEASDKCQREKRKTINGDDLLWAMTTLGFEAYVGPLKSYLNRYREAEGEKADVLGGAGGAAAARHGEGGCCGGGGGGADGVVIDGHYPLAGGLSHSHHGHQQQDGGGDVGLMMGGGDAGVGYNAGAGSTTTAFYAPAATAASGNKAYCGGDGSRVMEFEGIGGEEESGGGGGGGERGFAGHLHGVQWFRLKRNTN

[2] = biological target: T1, GRAIN YIELD, PLANT HEIGHT AND HEADING DATE 8 (Ghd8) (rice (Oryza sativa)); test: yeast three-hybrid; BD-Ghd8 (pGBKT7), NF-YC subunit or nothing from pTFT1, AD fusion (pGADT7); growth on YSD lacking Leu, Trp, Ade and His with increasing 3AT; 6 days at 30°C
[3] = biological target: T2, GRAIN YIELD, PLANT HEIGHT AND HEADING DATE 8 (Ghd8) (rice (Oryza sativa)), Q0J7P4; test: as above; settings: remark: other sources report otherwise
T2 chain: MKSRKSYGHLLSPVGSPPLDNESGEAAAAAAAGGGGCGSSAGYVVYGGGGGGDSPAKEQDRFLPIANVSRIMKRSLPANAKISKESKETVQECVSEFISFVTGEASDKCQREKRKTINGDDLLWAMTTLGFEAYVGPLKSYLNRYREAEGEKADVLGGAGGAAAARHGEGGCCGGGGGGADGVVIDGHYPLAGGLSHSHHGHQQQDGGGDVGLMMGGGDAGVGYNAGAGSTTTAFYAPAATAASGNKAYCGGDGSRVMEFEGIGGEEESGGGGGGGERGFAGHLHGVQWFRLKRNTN

[4] = biological target: T2, GRAIN YIELD, PLANT HEIGHT AND HEADING …; test: two-hybrid; GAL4 AD (pGADT7) and BD (pGBKT7) fusions in yeast (AH109, Y187), diploids after mating; growth on YSD lacking Leu, Trp and His with increasing 3AT; 6 days at 30°C; settings: remark: other sources report otherwise

B1: GRAIN YIELD, PLANT HEIGHT AND HEADING DATE 8 (Ghd8) (protein, UniProt Q0J7P4 1-297)
chain: MKSRKSYGHLLSPVGSPPLDNESGEAAAAAAAGGGGCGSSAGYVVYGGGGGGDSPAKEQDRFLPIANVSRIMKRSLPANAKISKESKETVQECVSEFISFVTGEASDKCQREKRKTINGDDLLWAMTTLGFEAYVGPLKSYLNRYREAEGEKADVLGGAGGAAAARHGEGGCCGGGGGGADGVVIDGHYPLAGGLSHSHHGHQQQDGGGDVGLMMGGGDAGVGYNAGAGSTTTAFYAPAATAASGNKAYCGGDGSRVMEFEGIGGEEESGGGGGGGERGFAGHLHGVQWFRLKRNTN
- binding [1]: binds

B2: PSEUDO RESPONSE REGULATOR 37 (PRR37) (protein, UniProt Q0D3B6 1-742)
chain: MMGTAHHNQTAGSALGVGVGDANDAVPGAGGGGYSDPDGGPISGVQRPPQVCWERFIQKKTIKVLLVDSDDSTRQVVSALLRHCMYEVIPAENGQQAWTYLEDMQNSIDLVLTEVVMPGVSGISLLSRIMNHNICKNIPVIMMSSNDAMGTVFKCLSKGAVDFLVKPIRKNELKNLWQHVWRRCHSSSGSGSESGIQTQKCAKSKSGDESNNNNGSNDDDDDDGVIMGLNARDGSDNGSGTQAQSSWTKRAVEIDSPQAMSPDQLADPPDSTCAQVIHLKSDICSNRWLPCTSNKNSKKQKETNDDFKGKDLEIGSPRNLNTAYQSSPNERSIKPTDRRNEYPLQNNSKEAAMENLEESSVRAADLIGSMAKNMDAQQAARAANAPNCSSKVPEGKDKNRDNIMPSLELSLKRSRSTGDGANAIQEEQRNVLRRSDLSAFTRYHTPVASNQGGTGFMGSCSLHDNSSEAMKTDSAYNMKSNSDAAPIKQGSNGSSNNNDMGSTTKNVVTKPSTNKERVMSPSAVKANGHTSAFHPAQHWTSPANTTGKEKTDEVANNAAKRAQPGEVQSNLVQHPRPILHYVHFDVSRENGGSGAPQCGSSNVFDPPVEGHAANYGVNGSNSGSNNGSNGQNGSTTAVNAERPNMEIANGTINKSGPGGGNGSGSGSGNDMYLKRFTQREHRVAAVIKFRQKRKERNFGKKVRYQSRKRLAEQRPRVRGQFVRQAVQDQQQQGGGREAAADR
- binding [2]: no binding

B3: HEADING DATE 1 (Hd1), Nipponbare allele (Hd1^NB), Q9FDX8 1-395 (protein)
chain: MNYNFGGNVFDQEVGVGGEGGGGGEGSGCPWARPCDGCRAAPSVVYCRADAAYLCASCDARVHAANRVASRHERVRVCEACERAPAALACRADAAALCVACDVQVHSANPLPAITIPATSVLAEAVVATATVLGDKDEEVDSWLLLSKDSDNNNNNNNNNDNDNNDNNNSNSSNNGMYFGEVDEYFDLVGYNSYYDNRIENNQDRQYGMHEQQEQQQQQQEMQKEFAEKEGSECVVPSQITMLSEQQHSGYGVVGADQAASMTAGVSAYTDSISNSISFSSMEAGIVPDSTVIDMPNSRILTPAGAINLFSGPSLQMSLHFSSMDREARVLRYREKKKARKFEKTIRYETRKAYAEARPRIKGRFAKRSDVQIEVDQMFSTAALSDGSYGTVPWF
- binding [3]: no binding
- binding [4]: no binding
